According to PMC4969713 (Journal of Alzheimer's Disease, 2016):

Tested on: guinea pigs
Test: Q-T interval, guinea pigs
Type: in vivo
Details: 10 mg/kg IP

CCCCc1oc2ccccc2c1C(=O)c1cc(I)c(OCCN(CC)CC)c(I)c1 [amiodaron, reference compound]
QT prolongation: expected QT prolongation
